# The campaign covered roughly 360,000 compounds. About 10,000 (2.8%) were called active. The shares of active, inactive and inconclusive entries below differ from those in the screen. Calls come from the whole dose curve; as a rule, active = well fitted inhibition curve with a large enough effect; inconclusive = small, poorly fitted or top-dose-only effect; inactive = flat fitted curve, though single readings scatter. Where the call is inconclusive, the potency comes from a doubtful curve fit.
# Chains of the proteins cited; added tags and fusions are not shown.
# UniProt P53350, whole entry, looked up: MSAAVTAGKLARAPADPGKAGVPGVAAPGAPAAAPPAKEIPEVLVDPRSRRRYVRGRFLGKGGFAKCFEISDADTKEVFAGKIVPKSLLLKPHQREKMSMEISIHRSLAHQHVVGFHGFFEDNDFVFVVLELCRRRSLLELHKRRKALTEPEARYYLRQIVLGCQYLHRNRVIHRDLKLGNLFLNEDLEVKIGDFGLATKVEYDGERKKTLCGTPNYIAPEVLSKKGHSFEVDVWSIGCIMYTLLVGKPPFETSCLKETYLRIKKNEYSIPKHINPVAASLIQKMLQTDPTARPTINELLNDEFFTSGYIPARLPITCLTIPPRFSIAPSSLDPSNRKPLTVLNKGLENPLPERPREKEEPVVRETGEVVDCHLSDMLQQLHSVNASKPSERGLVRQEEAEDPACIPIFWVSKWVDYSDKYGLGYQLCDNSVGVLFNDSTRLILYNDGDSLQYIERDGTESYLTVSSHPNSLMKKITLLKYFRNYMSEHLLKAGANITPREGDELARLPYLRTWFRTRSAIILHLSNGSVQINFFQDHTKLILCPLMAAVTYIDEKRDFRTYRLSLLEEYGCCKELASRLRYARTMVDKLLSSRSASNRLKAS
# Target: Serine/threonine-protein kinase PLK1 (Homo sapiens) (UniProt P53350)
# Assay: qHTS for Inhibitors of PLK1-PDB (polo-like kinase 1 - polo-box domain): Primary Screen; note: nearly all actives have a fitted effect of over 65% in size; for max response, negative = inhibition: series mostly up to about 57 µM
# Details: Plk1 PBD binding of FITC phosphopeptide, fluorescence polarization
# % is set by controls: 0 for no effect and ±100 for the full control effect; potency is the fitted concentration of half-maximal effect.
Structure (SMILES),Potency,"max response, negative = inhibition"
CC1=C(C(=O)OCC2CCCO2)C(c2ccncc2)C2=C(CC(C)(C)CC2=O)N1 (stereo not given),"inconclusive: 37.7 µM [inhibitor, single point]",–
CCc1ccc(S(=O)(=O)N/N=C\c2ccc([N+](=O)[O-])o2)cc1,–,inconclusive: -32.4% [inhibitor]
CCOC(=O)c1cnn2c(N)c(C#N)cnc12,–,inactive: -9.55%
Cc1ccc(CNC(=O)CCS(=O)(=O)c2ccc3c(c2)NC(=O)CS3)cc1,"inconclusive: 18.9 µM [inhibitor, partial curve]",–
CCOC(=O)N1CCN(C(=O)/C(=C/c2ccc(OC)cc2)NC(=O)c2ccccc2)CC1,"inconclusive: 21.2 µM [inhibitor, single point]",–
c1ccc([C@H]2CN3C(=N2)Sc2ccccc23)cc1,"inconclusive: 18.9 µM [inhibitor, single point]",–
CC1CCCN(S(=O)(=O)c2ccc3[nH]c4c(c3c2)CCCC4)C1 (stereo not given),"inconclusive: 33.6 µM [inhibitor, single point]",–
CC(=O)N1c2ccc(S(=O)(=O)NCCC(=O)N3CCC(C)CC3)cc2CC1C (stereo not given),"inconclusive: 26.7 µM [inhibitor, partial curve]",–
O=C(O)CN1C(=O)SC(Nc2ccc(Cl)cc2)C1=O (stereo not given),–,inactive: -4.96%
COc1ccc2[nH]c(C(=O)O)c(NS(=O)(=O)c3ccc(OC)c(OC)c3)c2c1,"inconclusive: 29.9 µM [inhibitor, single point]",–
Cc1ccc2cc(C)c3nnc(SCc4ccc(C(=O)O)cc4)n3c2c1C,"inconclusive: 33.6 µM [inhibitor, partial curve]",–
Cc1ccc(C(=O)CSc2nsc(C)c2C#N)cc1,active: 15 µM,–
COc1ccc(S(=O)(=O)c2c(N)n(Cc3ccco3)c3nc4ccccc4nc23)cc1,"inconclusive: 21.2 µM [inhibitor, partial curve]",–
CC(=O)N(Cc1ccco1)c1nc(C(=O)Nc2ccc(Cl)cc2)c(C)s1,"inconclusive: 9.47 µM [inhibitor, partial curve]",–
CC(=O)N1c2ccc(F)c(F)c2C[C@H]1C,"inconclusive: 26.7 µM [inhibitor, single point]",–
CNc1oc(Cc2ccccc2)nc1S(=O)(=O)c1ccccc1,active: 2.67 µM,–
O=C(CSc1nncn1-c1ccccc1)Nc1ccc(N2CCOCC2)cc1,active: 2.67 µM,–
CCN(Cc1ccccc1)c1ccc(/C=N/NS(=O)(=O)c2cccc([N+](=O)[O-])c2)cc1,"inconclusive: 26.7 µM [inhibitor, partial curve]",–
CCOC(=O)c1c(NC(=O)/C=C/c2ccc(C)o2)sc(C)c1C,active: 26.7 µM,–
O=C(NN1CCOCC1)c1ccccc1F,–,inactive: -12%
NC(=O)c1c(NC(=O)CSc2nnc(Cc3ccccc3)n2Cc2ccco2)sc2c1CCC2,–,inconclusive: -35.9% [inhibitor]
O=C(CSc1nnc(COc2ccc(Cl)cc2)o1)N1CCN(c2ccccc2)CC1,active: 29.9 µM,–
COc1cc(C(=O)NCC(=O)NCCN2C(=O)S/C(=C\c3ccccc3Cl)C2=O)cc(OC)c1OC,"inconclusive: 37.7 µM [inhibitor, single point]",–

# Arranged by SMILES length (falling): part of the list above
Structure (SMILES),Potency,"max response, negative = inhibition"
COc1cc(C(=O)NCC(=O)NCCN2C(=O)S/C(=C\c3ccccc3Cl)C2=O)cc(OC)c1OC,"inconclusive: 37.7 µM [inhibitor, single point]",–
CC(=O)N(Cc1ccco1)c1nc(C(=O)Nc2ccc(Cl)cc2)c(C)s1,"inconclusive: 9.47 µM [inhibitor, partial curve]",–
CC1CCCN(S(=O)(=O)c2ccc3[nH]c4c(c3c2)CCCC4)C1 (stereo not given),"inconclusive: 33.6 µM [inhibitor, single point]",–

# Continuation:

Structure (SMILES),Potency,"max response, negative = inhibition"
CN(C)S(=O)(=O)c1ccc2c(c1)C(CC(=O)O)NC2=O (stereo not given),"inconclusive: 16.8 µM [inhibitor, partial curve]",–
CCNC(=S)Nn1cnc2ccccc21,–,inconclusive: -30.1% [inhibitor]
Cc1cc(/C=C\c2ccc3cc(N(C)C)ccc3[n+]2C)c(C)n1-c1ccccc1,"inconclusive: 21.2 µM [inhibitor, partial curve]",–
CCCCC1(C)OC(=O)C(=Cc2ccc(N(CC)CC)cc2)C(=O)O1 (stereo not given),"inconclusive: 26.7 µM [inhibitor, partial curve]",–
COc1cc(/C=N/NC(=O)c2ccccc2O)ccc1OCC(=O)Nc1ccccc1,"inconclusive: 29.9 µM [inhibitor, single point]",–
COCc1nnc(NS(=O)(=O)c2ccc([N+](=O)[O-])cc2)s1,"inconclusive: 23.8 µM [inhibitor, partial curve]",–
O=C(Nc1cccc(N=Cc2cc(Br)cc(Br)c2O)c1)c1ccco1,"inconclusive: 26.7 µM [inhibitor, partial curve]",–
Cc1cc(C(=O)NNC(=S)NC(=O)/C=C/c2ccccc2Cl)n[nH]1,"inconclusive: 23.8 µM [inhibitor, partial curve]",–
COCc1cc(N2CCCCC2)nc(-c2ccccc2)n1,active: 26.7 µM,–
CC(C)Cn1c(N)c(C(=O)COC(=O)C2CCCCC2)c(=O)n(C)c1=O,active: 23.8 µM,–
O=C(CN1C(=O)CSC1=O)N1CCCC(Nc2ccc(F)cc2)C1 (stereo not given),–,inconclusive: -33.8% [inhibitor]
CCCCn1c(=NC(C)=O)c(C#N)cc2c(=O)n3cccc(C)c3nc21,–,inconclusive: -32.1% [inhibitor]
Cc1ncc(CO)c(/C=N/NC(=O)c2cc(Br)ccc2O)c1O,–,inactive: -10.1%
COc1ccc([C@@H]2[C@@H](C(=O)C(C)(C)C)N3N=Cc4ccccc4[C@@H]3C23C(=O)OC(C)(C)OC3=O)cc1OC,"inconclusive: 23.8 µM [inhibitor, partial curve]",–
Nc1cc(=O)[nH]c(SCC(=O)Nc2cc([N+](=O)[O-])ccc2Cl)n1,active: 21.2 µM,–
CCOCCSC1=C(C#N)C(c2cccs2)C(C(C)=O)=C(C)N1 (stereo not given),–,inactive: -10.9%
N#Cc1c(NC(=O)CSc2ncn(-c3ccccc3)n2)sc2c1CCCC2,"inconclusive: 26.7 µM [inhibitor, partial curve]",–
COc1ccc(NS(=O)(=O)c2cccs2)cn1,–,inactive: 0.113%
COCc1cc(Sc2ccc(Cl)cc2)nc(-c2ccccc2)n1,"inconclusive: 23.8 µM [inhibitor, single point]",–
CCCNC(=O)Cc1c(OC)ccc2cc(Br)ccc12,"inconclusive: 21.2 µM [inhibitor, partial curve]",–
O=C1C(=Cc2ccc(Br)o2)C(=O)c2ccccc21,active: 2.67 µM,–
Nc1cccc(-c2cc3ccccc3oc2=O)c1,"inconclusive: 21.2 µM [inhibitor, single point]",–

# From PubChem BioAssay AID720504 (National Center for Advancing Translational Sciences (NCATS), 2013)
